Source: PubChem BioAssay AID2685 (National Center for Advancing Translational Sciences (NCATS), 2010)
Out of some 320,000 compounds screened, about 2,100 (0.66%) were called active. The inconclusive results got no clear call from the source; some entries with a clear call stand among them for comparison. The call rests on the fitted dose curve; in most records, active means well fitted inhibition curve with a large enough effect in the signal ratio, with a control signal flat (not every such curve was filed as active); inconclusive means small, poorly fitted or top-dose-only effect, or effect the other way, or a change in a side signal; inactive means flat fitted curve, though single readings scatter; the % refers to the signal ratio. Where the call is inconclusive, the potency comes from a doubtful curve fit.
On the % scale 0 is the no-effect control and ±100 the full control effect; potency means the concentration at half of the fitted maximal effect.

Assay: qHTS Assay for Lipid Storage Modulators in Drosophila S3 Cells
Conditions: BODIPY lipid droplet fluorescence, 18-24 h, cells fed with added oleic acid; lipid storage change, negative = inhibition: at 46.1 µM (top of the series) unless noted
Method in brief: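 Drosophila S3 cells got compounds at several concentrations plus oleic acid (400 uM solution). Laser-scanning cytometry with 488 nm excitation read lipid droplets at 500-530 nm and cells at 575-640 nm. Percent activity was relative to 20 uM Triacsin C.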
With Fc1cccc(NC(=S)N2CCc3ccccc32)c1 the lipid storage change, negative = inhibition was “inactive”. For Cc1ccc2nc(-c3ccc(O)cc3)c(Nc3ccc4c(c3)OCCO4)n2c1, the Potency was inconclusive: 6.51 µM [activator, single point]. For Cc1c(C(=O)Nc2nnc(C3CC3)s2)oc2ccccc12, the lipid storage change, negative = inhibition was inconclusive: -2.51%. In the case of Cn1c(CNC(=O)c2ccco2)nnc1SCC(=O)Nc1cccc(F)c1, the lipid storage change, negative = inhibition is reported as inconclusive: 6.68%. With CCNc1oc(-c2ccc(OC)cc2)nc1S(=O)(=O)c1ccc(Br)cc1 the lipid storage change, negative = inhibition was inconclusive: -32.4%. In the case of O=C1c2ccccc2C(O)N1c1ccc(Cl)cc1 (configuration not stated), the lipid storage change, negative = inhibition is reported as inconclusive: 0.184%. With C/C(=N/NC(=O)CNC(=O)c1ccco1)c1ccc(Cl)cc1 the Potency was inconclusive: 0.082 µM [falling, partial curve, poor fit]. With OCCC1CN(Cc2ccc(-c3ccco3)cc2)CCN1Cc1ccsc1 (configuration not stated) the lipid storage change, negative = inhibition was inconclusive: 40.6%. With CC1COc2ccccc2N1C(=O)c1cccnc1Cl (configuration not stated) the lipid storage change, negative = inhibition was inconclusive: 15%. With O=C(Cc1cccs1)N/N=C/C=C/c1ccco1 the lipid storage change, negative = inhibition was inconclusive: 5.36%. With N#CCSc1nc(N)c(C#N)c(C2CCCCC2)c1C#N the lipid storage change, negative = inhibition was inconclusive: 1.63%. For CC1CCCC(NC(=O)c2cccc(N3CCCC3=O)c2)C1C (configuration not stated), the lipid storage change, negative = inhibition was inconclusive: 7.96%. In the case of C=CCn1c(SCC(=O)N(CC)C2CCS(=O)(=O)C2)nc2cc(C(=O)O)ccc2c1=O (configuration not stated), the lipid storage change, negative = inhibition is reported as inconclusive: 79.4%. For COCCNC(=O)C(=O)Nc1cccc(Br)c1, the Potency was inconclusive: 1.3 µM [falling, full curve]. In the case of COCc1cc(C)nc(SCC(=O)Nc2ccccc2N2CCOCC2)c1C#N, the Potency is reported as active: 13 µM. For Cc1ccc(Cn2cc(/C=N/Nc3ccc([N+](=O)[O-])cn3)c3ccccc32)cc1, the Potency was inconclusive: 13 µM [falling, partial curve]. In the case of Cc1nn(C)c(N)c1C(O)(c1nccn1C)C(F)(F)F (configuration not stated), the Potency is reported as inconclusive: 0.058 µM [falling, full curve]. For COc1ccc(C(=O)Nc2nc3ccccc3s2)cc1, the lipid storage change, negative = inhibition was inconclusive: -35%. For CCOC(=O)CSc1nc2sc3c(c2c(=O)[nH]1)CC(C)(CC)OC3 (configuration not stated), the lipid storage change, negative = inhibition was inconclusive: 5.34%. In the case of CSc1ccccc1NC(=O)CCn1c(=O)oc2ccccc21, the lipid storage change, negative = inhibition is reported as inconclusive: 8.6%. With COc1ccc(-c2cc(C(F)F)nc(-n3nc(C)cc3C)n2)cc1 the lipid storage change, negative = inhibition was inconclusive: -18.7%. With CCn1cc(C(=O)NC2CC3CCC2C3)c(=O)c2ccc(C)nc21 (configuration not stated) the lipid storage change, negative = inhibition was inconclusive: 24%. With CS(=O)(=O)c1ccc2nc(NC(=O)c3ccc(NS(=O)(=O)c4ccc(F)c(F)c4)cc3)sc2c1 the Potency was inconclusive: 29.1 µM [falling, single point]. For Cn1nnnc1SCCOc1ccc(C#N)cc1, the lipid storage change, negative = inhibition was inconclusive: -5.87%. In the case of Cc1cccc(OCc2nnc(SCC(=O)NCCc3ccccc3)o2)c1, the lipid storage change, negative = inhibition is reported as inconclusive: 17.8%. In the case of Cc1noc(C)c1CSCC(=O)NC1=NCCS1, the lipid storage change, negative = inhibition is reported as inconclusive: 17.8%. In the case of COc1ccc(C(=O)O)cc1S(N)(=O)=O, the Potency is reported as inconclusive: 1.46 µM [falling, full curve, poor fit]. In the case of COc1ccc(S(=O)(=O)N2CCCCC2)cc1NC(=O)CN1CCN(C(C)=O)CC1, the lipid storage change, negative = inhibition is reported as inconclusive: 12.6%. With Cc1cc(NC(=O)c2cccc([N+](=O)[O-])c2)n(-c2ccccc2)n1 the lipid storage change, negative = inhibition was inconclusive: 19.3%. For O=C1C(=O)N(CCCn2ccnc2)C(c2ccc([N+](=O)[O-])cc2)/C1=C(\O)c1ccc2c(c1)OCCO2 (configuration not stated), the lipid storage change, negative = inhibition was inconclusive: -6.02%. For OCC[C@@H]1C[C@H](O)[C@@H](O)[C@@]2(Cc3ccccc3O2)O1, the lipid storage change, negative = inhibition was inconclusive: 68%. With Cc1ccc(/C=C/C(=O)Nc2nnc(SCc3ccc(C#N)cc3)s2)o1 the Potency was inconclusive: 29.1 µM [cytotoxic, single point]. For CCCCCOC(=O)C1=C(C)NC(=O)NC1c1ccc(OC)cc1 (configuration not stated), the Potency was inconclusive: 23.1 µM [falling, single point]. For CCCn1nc(NC(=O)c2ccco2)c2cc3ccc(C)cc3nc21, the lipid storage change, negative = inhibition was inconclusive: 123%. In the case of O=C(Nc1cccc2cccnc12)c1cccc(N2C(=O)CCC2=O)c1, the lipid storage change, negative = inhibition is reported as inconclusive: 9.23%. In the case of O=C(CSc1nnc(NC(=O)c2ccco2)s1)Nc1ccccc1Cl, the lipid storage change, negative = inhibition is reported as inconclusive: -37.7%. In the case of CCOc1ccc(-c2nnc(SCC(=O)NC(C)(C)C)nc2-c2ccc(OCC)c(OC)c2)cc1OC, the lipid storage change, negative = inhibition is reported as inconclusive: 33.6%. With CCOC(=O)NC(=O)c1cn(Nc2ccccc2)c(=O)[nH]c1=O the Potency was inconclusive: 0.651 µM [falling, full curve]. In the case of COCCCn1c(=N)c(C(=O)NCc2ccc3c(c2)OCO3)cc2c(=O)n3ccccc3nc21, the Potency is reported as inconclusive: 4.11 µM [activator, partial curve]. With C=CCNC(=O)C1CCN(S(=O)(=O)c2ccc3ccccc3c2)CC1 the Potency was inconclusive: 29.1 µM [activator, single point]. For O=C1CCNCCN1[C@H](CO)c1ccccc1, the Potency was inconclusive: 4.11 µM [activator, full curve, poor fit]. In the case of CCc1noc(C)c1C(=O)N(CC(C)C)c1c(N)n(Cc2ccccc2)c(=O)[nH]c1=O, the lipid storage change, negative = inhibition is reported as inconclusive: 15.7%. In the case of CSCCNC(=O)c1ccc(C(C)(C)C)cc1, the Potency is reported as inconclusive: 0.58 µM [falling, single point]. In the case of Clc1ccc(N2CCN(/N=C/c3cccnc3)CC2)cc1, the lipid storage change, negative = inhibition is reported as inconclusive: 12.5%. In the case of CCCCCOc1ccc(C(C)(O)C(CN2CCOCC2)c2ccccc2)cc1 (configuration not stated), the lipid storage change, negative = inhibition is reported as inconclusive: -14.3%. With Clc1cccc(Nc2nc(N3CCOCC3)nc(N3CCOCC3)n2)c1 the Potency was inconclusive: 2.31 µM [activator, full curve]. In the case of O=C(Nc1ccc(Cl)cn1)c1ccc2ccccc2n1, the lipid storage change, negative = inhibition is reported as inconclusive: -21%. With COc1cc(C(=O)NC(C)c2ccc3ccccc3c2)cc(Cl)c1O (configuration not stated) the lipid storage change, negative = inhibition was inconclusive: 189%. With O=C(NC(=S)N1CCN(Cc2ccccc2)CC1)c1cccnc1 the lipid storage change, negative = inhibition was inconclusive: 42.5%. With Cc1c(NC(=S)NC(=O)c2cc3ccccc3o2)cccc1C(=O)O the Potency was inconclusive: 0.291 µM [activator, partial curve, poor fit]. With CCOCC(=O)Nc1ccc(OCc2ccccc2)cc1 the lipid storage change, negative = inhibition was inconclusive: 26.8%. With COc1ccccc1N1CCN(C(=O)c2cccc(S(=O)(=O)NCc3cccnc3)c2)CC1 the lipid storage change, negative = inhibition was inconclusive: 16.2%. With CCOC(=O)c1cc(-c2ccc3c(c2)OCO3)nc2onc(C)c12 the Potency was inconclusive: 0.366 µM [rising, full curve]. For Cc1ccc[n+](C(C)C(=O)Nc2ccc(C)c([N+](=O)[O-])c2)c1 (configuration not stated), the lipid storage change, negative = inhibition was inconclusive: -36.8% [at 0.0737 µM]. In the case of COc1ccc(NC(=O)CN(c2ccc(C)cc2)S(C)(=O)=O)c(OC)c1, the Potency is reported as inconclusive: 0.13 µM [falling, single point]. In the case of COCCNC(=S)N/N=C(\C)c1ccc(C)c([N+](=O)[O-])c1, the Potency is reported as inconclusive: 23.1 µM [activator, single point]. In the case of Cc1ccc2c(c1)[C@H]1[C@H](CO2)[C@H](c2ccccc2)[C@]2(C)C(=O)N(Cc3ccc(Cl)cc3)CC(=O)N12, the lipid storage change, negative = inhibition is reported as inconclusive: 19.5%. With C=C(C)Cn1c(-c2ccncc2)n[nH]c1=S the lipid storage change, negative = inhibition was “inactive”. For O=C(Cc1ccccc1)NCc1ccncc1, the lipid storage change, negative = inhibition was inconclusive: -47.4%. With CCOC(=O)c1c[nH]c2nc(C)ccc2c1=O the lipid storage change, negative = inhibition was inconclusive: 1.32%. With O=C(COc1ccc(F)cc1Cl)Nc1ccc(S(=O)(=O)Nc2nccs2)cc1 the Potency was inconclusive: 11.6 µM [rising, partial curve]. With C#CC(CC)(CC)NC(=O)/C=C/C(=O)O the Potency was inconclusive: 29.1 µM [cytotoxic, single point]. In the case of CCn1c(=N)c(S(=O)(=O)c2ccc(C)cc2)cc2c(=O)n3ccccc3nc21, the lipid storage change, negative = inhibition is reported as “inactive”. In the case of COc1ccc(CNCC2COc3ccccc3O2)cc1 (configuration not stated), the lipid storage change, negative = inhibition is reported as inconclusive: 12%. For CCc1cccc(OC2OC(CO)C(O)C(O)C2NC(C)=O)c1 (configuration not stated), the Potency was inconclusive: 5.17 µM [cytotoxic, full curve, poor fit]. In the case of Cc1ccc(C(=O)N(Cc2nc(-c3ccc(C)cc3)no2)C(C)C)cc1, the lipid storage change, negative = inhibition is reported as inconclusive: 1.98%. For CCN(CC)C(=O)C1CCCN(C(=O)c2cc(COc3ccc4ncccc4c3)on2)C1 (configuration not stated), the Potency was inconclusive: 6.51 µM [activator, single point]. For CCOC(=O)c1c(/N=C/C2C(=O)CCCC2=O)sc(C)c1C, the Potency was inconclusive: 20.6 µM [activator, single point]. In the case of CCn1c(SCC(=O)Nc2ccc(Br)cn2)nnc1C1CC1, the lipid storage change, negative = inhibition is reported as inconclusive: 28.7%. With CC(C(=O)NC1CCCC1)N1CCN(S(=O)(=O)c2ccc(C(C)(C)C)cc2)CC1 (configuration not stated) the Potency was inconclusive: 4.61 µM [activator, single point]. With Cc1ccc[n+](CC(=O)c2ccc(Br)cc2)c1 the Potency was active: 11.6 µM. In the case of CC(=O)Oc1ccc(/C=N/NC(=O)c2ccc(N(C)S(=O)(=O)c3ccccc3)cc2)cc1, the lipid storage change, negative = inhibition is reported as inconclusive: 146%. In the case of CC(C)CN1C(Nc2ccccc2)=NC[C@@H]1C, the Potency is reported as inconclusive: 6.51 µM [activator, single point]. In the case of On1c(-c2ccc(Cl)cc2)nc2ccccc21, the lipid storage change, negative = inhibition is reported as inconclusive: 27.1%. In the case of Nc1c(Cl)c(Cl)nc(C(=O)OCC(=O)NCc2ccccc2)c1Cl, the Potency is reported as inconclusive: 1.03 µM [falling, full curve, poor fit]. With CC1(C)OC(c2ccccc2)=C/C(=C/C=N/NC(=O)c2ccncc2)O1 the lipid storage change, negative = inhibition was inconclusive: -32.3%. For COCc1ccc(C(=O)NC2CC(C)(C)Cc3c2cnn3-c2ccc(OC)cc2)o1 (configuration not stated), the Potency was inconclusive: 29.1 µM [activator, single point].
